Data as given in PubChem BioAssay AID504786 (Drosophila RNAi Screening Center, 2011)
In all, the deposit lists about 21,000 reagents; this is an unselected part of those with a known target gene and a result. 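Primary screen; positive scores mean lost reporter signal, so the sign may be inverted from the usual convention.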 Names joined by + are all predicted targets of the reagent.

Purpose: 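Knock-downs reducing HIF reporter induction by the iron chelator DFO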 (primary screen)
Cell system: Drosophila S2 cells with a stable HIF luciferase reporter
Reagent: long dsRNA against Drosophila genes, about 0.2 µg dsRNA per well of a 384-well plate
Duration: three days of knock-down, then 20 h of DFO before reading
Challenge: desferrioxamine (DFO) at 100 µM, an iron chelator that mimics hypoxia, for 20 h
Measurement: 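Firefly luciferase driven by the mouse ldh-a hypoxia-response element, measured after 20 h of 100 µM DFO; z-scores per plate, higher means more signal lost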
Direction: z-score: higher = stronger loss of HIF reporter signal

| Gene | DRSC id | z-score, replicate 1 | z-score, replicate 2 | z-score, replicate 3 | z-score, replicate 4 |
| --- | --- | --- | --- | --- | --- |
| CG7611 | DRSC11840 | -0.3 | -0.2 | – | – |
| Zw | DRSC20303 | -0.1 | -0.4 | – | – |
| CG11030 | DRSC02120 | -0.2 | 0.5 | – | – |
| comm2 | DRSC09881 | 1.1 | -0.5 | – | – |
| comm2 | DRSC10877 | -0.4 | -0.6 | – | – |
| Nthl1 | DRSC03183 | -0.3 | -0.3 | – | – |
| CG4701 | DRSC01952 | -0.3 | 1.9 | – | – |
| Prp16 | DRSC19538 | -0.5 | 0.4 | – | – |
| Prp16 | DRSC19542 | -0.3 | 0.8 | – | – |
| CG13367 | DRSC18485 | -0.3 | -0.6 | – | – |
| CG13367 | DRSC18486 | -0.3 | -0.1 | – | – |
| Mco1 | DRSC02720 | -0.3 | -0.4 | – | – |
| CG9072 | DRSC20147 | -0.3 | 0.1 | – | – |
| CG13026 | DRSC09906 | -0.3 | -0.5 | – | – |
| CG13875 | DRSC08345 | -0.3 | -0.4 | – | – |
| CG4882 | DRSC04495 | 0.3 | 0.7 | – | – |
| CG10252 | DRSC14221 | -0.1 | -0.5 | – | – |
| CG13116 | DRSC02214 | -0.4 | -0.4 | -0.9 | -0.3 |
| Bub1 | DRSC02357 | -0.2 | -0.4 | – | – |
| CG6749 | DRSC10704 | -0.3 | -0.4 | – | – |
| kn | DRSC05505 | 0 | -0.2 | -0.1 | -0.2 |
| kn | DRSC05507 | -0.2 | 0.1 | – | – |
| kn | DRSC06196 | -0.5 | -0.6 | – | – |
| kn | DRSC07637 | -0.2 | -0.3 | – | – |
| CG2224 | DRSC15429 | -0.3 | -0.7 | – | – |
| IRSp53 | DRSC10891 | -0.2 | -0.1 | – | – |
| CG32773 (retired record) | DRSC17330 | -0.2 | -0.3 | – | – |
| Obp99c | DRSC16262 | 0 | -0.1 | – | – |
| CG4372 | DRSC04466 | -0.3 | -0.4 | – | – |
| Inx3 | DRSC14857 | -0.3 | -0.3 | – | – |
| CG10435 | DRSC14246 | -0.4 | -0.6 | – | – |
| lectin-46Cb | DRSC06611 | -0.2 | -0.4 | – | – |
| CG8031 | DRSC16364 | -0.2 | -0.2 | – | – |
| ND-13B | DRSC10643 | 0 | 0.3 | – | – |
| CG2006 + Spase12 | DRSC14316 | -0.5 | 0.1 | – | – |
| Josd | DRSC18323 | -0.2 | -0.6 | – | – |
| CG8854 | DRSC07288 | -0.3 | -0.4 | – | – |
| CG30486 | DRSC06680 | -0.3 | -0.4 | – | – |
| dos | DRSC07992 | 5.3 | 4.4 | – | – |
| dos | DRSC08713 | -0.4 | 0.7 | – | – |
| CG4375 | DRSC00653 | -0.3 | -0.2 | – | – |
| CG42382 | DRSC07671 | -0.3 | -0.4 | – | – |
| Lkb1 | DRSC16481 | -0.4 | -0.6 | – | – |
| Echs1 | DRSC06999 | -0.4 | -0.7 | – | – |
| CG15375 | DRSC18045 | -0.3 | -0.6 | – | – |
| Prm | DRSC08941 | -0.3 | -0.1 | – | – |
| Prm | DRSC08942 | -0.4 | -0.6 | – | – |
| Prm | DRSC11255 | -0.4 | -0.3 | – | – |
| CG4577 | DRSC00658 | -0.3 | 0.1 | – | – |
| CG34210 | DRSC04579 | -0.4 | -0.4 | – | – |
| CG1979 | DRSC12495 | -0.4 | -0.3 | – | – |
| CG42588 | DRSC09820 | -0.3 | -0.2 | – | – |
| ECSIT | DRSC12348 | -0.1 | -0.5 | – | – |
| CG17249 | DRSC08517 | -0.2 | -0.4 | – | – |
| Cenp-C | DRSC14371 | 0.3 | 0.1 | – | – |
| Pus7 | DRSC10703 | -0.2 | -0.1 | – | – |
| CG15429 | DRSC00444 | 0 | 0 | – | – |
| TTLL3B | DRSC02133 | -0.4 | 0 | – | – |
| mge | DRSC08721 | 0.5 | 0.5 | – | – |
| Or94a | DRSC16772 | -0.1 | 0.1 | – | – |
| CG34050 (retired record) | DRSC09067 | 4.4 | -0.4 | – | – |
| CG33203 | DRSC14874 | 0.6 | -0.1 | – | – |
| CG33203 | DRSC14876 | -0.5 | -0.7 | – | – |
| CG33203 | DRSC14877 | -0.4 | -0.7 | – | – |
| CG18557 | DRSC00524 | -0.2 | -0.3 | – | – |
| Mtp | DRSC03216 | -0.3 | -0.9 | – | – |
| CG7484 | DRSC10853 | 0.2 | 0.6 | – | – |
| CG5902 | DRSC15912 | -0.2 | -0.4 | – | – |
| Psc | DRSC07518 | -0.4 | -0.3 | – | – |
| CG13870 | DRSC06429 | 0.1 | 0.2 | – | – |
| CG42755 (retired record) | DRSC09105 | -0.4 | -0.1 | – | – |
| CG42755 (retired record) | DRSC09106 | -0.5 | -0.1 | – | – |
| TTLL6B | DRSC15932 | -0.1 | -0.8 | – | – |
| CG14445 | DRSC17938 | -0.2 | -0.7 | – | – |
| tRNA:Leu-CAA-2-3 | DRSC13633 | -0.2 | -0.1 | – | – |
| CG14177 (retired record) | DRSC10176 | -0.3 | -0.2 | – | – |
| e(y)2 | DRSC19640 | -0.3 | 0.7 | – | – |
| Mst87F | DRSC16747 | -0.3 | 0 | – | – |
| CG34229 | DRSC06316 | -0.4 | -0.4 | – | – |
| CG8708 | DRSC07240 | -0.3 | -0.3 | – | – |
| Aldh-III | DRSC06047 | 0 | 0.2 | – | – |
| meso18E | DRSC20351 | 1 | -0.6 | – | – |
| sds22 | DRSC17052 | -0.2 | -0.4 | – | – |
| mspo | DRSC07652 | -0.2 | -0.2 | – | – |
| Vps51 | DRSC06519 | -0.2 | -0.6 | – | – |
| CG14070 | DRSC02373 | -0.3 | -0.6 | – | – |
| CG17202 | DRSC15194 | 0.8 | 1.4 | – | – |
| Charon | DRSC00679 | -0.1 | 0.6 | – | – |
| Gp93 | DRSC15827 | -0.3 | -0.2 | – | – |
| Mbs | DRSC09414 | -0.6 | -0.4 | – | – |
| Mbs | DRSC10525 | -0.3 | -0.5 | – | – |
| Mbs | DRSC10553 | -0.2 | 0 | – | – |
| CG14053 | DRSC17908 | 0 | -0.4 | – | – |
| CG4537 | DRSC02756 | -0.3 | -0.7 | – | – |
| Or23a | DRSC00767 | -0.2 | -0.5 | – | – |
| HDAC4 | DRSC19780 | -0.3 | 0.4 | – | – |
| rtp | DRSC12132 | -0.4 | -0.6 | – | – |
| CG5715 | DRSC15860 | 0.2 | 0.2 | – | – |
| indra | DRSC08558 | -0.2 | -0.7 | – | – |
| CG5946 | DRSC10560 | -0.3 | -0.2 | – | – |
| CG10516 | DRSC09738 | -0.2 | -0.2 | – | – |
| Ccs | DRSC06692 | -0.3 | -0.8 | – | – |
| Upf3 | DRSC04092 | -0.4 | -0.6 | – | – |
| Rbm13 | DRSC17749 | 0.6 | 3 | – | – |
| CG4669 | DRSC10440 | -0.4 | -0.2 | – | – |
| l(2)34Fd | DRSC01911 | -0.2 | 0.9 | – | – |

Records listed so far whose target name starts with N or n:
| Gene | DRSC id | z-score, replicate 1 | z-score, replicate 2 | z-score, replicate 3 | z-score, replicate 4 |
| --- | --- | --- | --- | --- | --- |
| Nthl1 | DRSC03183 | -0.3 | -0.3 | – | – |
| ND-13B | DRSC10643 | 0 | 0.3 | – | – |
